No constants are given. Whether binding was seen depends on the method and setting. Binding can be weak; no strength is given.
Target: T1, retron Ec86 reverse transcriptase (E. coli BL21(DE3)) (UniProt P23070)
T1 sequence: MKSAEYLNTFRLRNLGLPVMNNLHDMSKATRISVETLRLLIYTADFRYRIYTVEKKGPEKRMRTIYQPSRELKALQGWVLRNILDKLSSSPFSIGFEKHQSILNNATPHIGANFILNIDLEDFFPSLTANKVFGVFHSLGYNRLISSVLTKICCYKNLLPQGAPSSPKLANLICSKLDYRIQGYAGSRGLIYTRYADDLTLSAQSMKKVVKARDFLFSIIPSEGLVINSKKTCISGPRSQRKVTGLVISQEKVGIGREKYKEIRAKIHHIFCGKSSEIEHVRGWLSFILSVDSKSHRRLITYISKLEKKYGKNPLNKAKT
Test: SEC

binding, binds:
retron Ec86 effector E84A mutant (E. coli BL21(DE3))
retron Ec86 effector N112A mutant (E. coli BL21(DE3))
retron Ec86 effector N113A mutant (E. coli BL21(DE3))
retron Ec86 effector R141A mutant (E. coli BL21(DE3))

Source: paper doi:10.1101/2023.08.16.553469
